From patent publication US20030004317A1 (GlaxoSmithKline, published 2003)

Tests used:
[1] = molecular target: human αvβ5 receptor protein purified from human placenta (human); assay: solid phase ELISA on purified human placenta receptor
[2] = molecular target: human αvβ3 receptor protein purified from human placenta (human); assay: as above
[3] = molecular target: human αvβ5 receptor protein purified from human placenta (human); assay: Specificity row, summary of the ELISAs
[4] = molecular target: human αvβ3 receptor protein purified from human placenta (human); assay: Specificity row, summary of the ELISAs

binding [1]: binds
binding [2]: binds
binding [3]: binds
binding [4]: binds
B1: murine monoclonal antibody B9 (antibody, mouse IgG1, V domains shown)
VH: QVQLQQSGAELMKPGASVKISCKATGYTFSSYWIEWVKQRPGHGLEWIGEILPRSGNTNYNEKFKGKATFTAETSSNTAYMQLSSLTPEDSAVYYCSSRGVRGSMDYWGQGTSVTVSS
VL: DIQMTQTTSSLSASLGDRVTITCRSSQDISNFLNWYQQKPDGTVKLLIYYTSTLHSGVPSRFSGSGSGTDYSLTISNLEQEDIATYFCQQGNTLPWTFGGGTNLEIKR
notes: also called mAb B9; Murine B9

These are yes or no findings as the source states them, for the method shown. A result given as binding can be weak or reduced; the word gives no strength.
